In article doi:10.1101/2022.09.10.507366:
These are yes or no findings as the source states them, for the method shown. In cells and extracts the contact can be indirect. These calls come from enrichment with a bait or labelling near it, and not all partners need be listed. Tags and fused reporters may be left off the sequences shown.

Molecular target: T1, FLAG-tagged FBXO11 (UniProt Q86XK2)
T1 sequence: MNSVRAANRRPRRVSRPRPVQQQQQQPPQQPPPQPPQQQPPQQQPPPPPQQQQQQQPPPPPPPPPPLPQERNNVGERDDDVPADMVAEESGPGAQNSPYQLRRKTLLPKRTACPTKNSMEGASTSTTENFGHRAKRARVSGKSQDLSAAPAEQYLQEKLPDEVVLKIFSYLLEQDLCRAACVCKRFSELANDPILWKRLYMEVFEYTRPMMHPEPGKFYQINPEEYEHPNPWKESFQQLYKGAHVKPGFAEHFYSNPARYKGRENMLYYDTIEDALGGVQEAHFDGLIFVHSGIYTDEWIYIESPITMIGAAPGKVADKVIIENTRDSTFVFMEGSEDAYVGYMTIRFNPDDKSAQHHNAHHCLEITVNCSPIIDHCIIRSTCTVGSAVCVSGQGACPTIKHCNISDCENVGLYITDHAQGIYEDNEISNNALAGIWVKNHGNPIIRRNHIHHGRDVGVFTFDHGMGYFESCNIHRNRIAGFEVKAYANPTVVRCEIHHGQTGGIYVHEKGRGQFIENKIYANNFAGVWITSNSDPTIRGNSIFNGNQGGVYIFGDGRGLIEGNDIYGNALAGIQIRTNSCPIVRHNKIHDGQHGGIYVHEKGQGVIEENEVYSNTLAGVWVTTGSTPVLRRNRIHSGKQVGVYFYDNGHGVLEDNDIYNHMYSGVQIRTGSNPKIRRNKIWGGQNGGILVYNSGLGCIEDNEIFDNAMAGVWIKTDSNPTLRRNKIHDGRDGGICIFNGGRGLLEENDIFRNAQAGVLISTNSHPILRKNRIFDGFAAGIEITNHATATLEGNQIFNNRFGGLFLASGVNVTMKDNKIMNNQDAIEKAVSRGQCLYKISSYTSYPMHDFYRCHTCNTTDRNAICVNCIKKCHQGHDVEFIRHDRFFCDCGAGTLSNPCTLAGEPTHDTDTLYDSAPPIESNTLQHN
Test: affinity purification with mass spectrometry

## SKP1 (from UniProt P63208 1-163)
  binding: binds
